Data reported in patent publication US11965041B2, “N-methylated cyclic peptides and their prodrugs” (TECHNISCHE UNIVERSITAET MUENCHEN, priority 2017, dated 2024).
At least one read-out could not be matched to a standard name with certainty. Some compounds share one range, which may span the group rather than tell each member. Some of these results come from one statement about several compounds together. Numbered stars: 1 amine (or outer) side, 2 acyl side, 3 side chain; on linkers, the order of the positions; unused ones are H or OH. Square brackets hold non-standard residues; d marks the D form. Peptide text beside a SMILES is read from it. X1 = CCCCCCOC(=O)N=C(NCCC[C@@H](N[*:1])C(=O)[*:2])NC(=O)OCCCCCC; NMeD = CN[C@@H](CC(=O)O)C(=O)O; NMeA = CN[C@@H](C)C(=O)O

system: Caco-2 cells; assay: Caco-2 permeability study (Examples 1, 2 and 4, Table 3); assay type: in vitro ADME, human

Compound | Caco-2 intestinal permeability, in words
CCCCCCOC(=O)N=C(NCCC[C@H]1NC(=O)[C@H](C)NC(=O)[C@H](C)N(C)C(=O)[C@H](C)NC(=O)[C@H](CC(=O)OC)N(C)C(=O)CNC1=O)NC(=O)OCCCCCC [Peptide 17P, c(r(Hoc)2G*D(OMe)A*AA)] (cyclo(A[NMeA]A[X1]G[NMeD](OMe))) | same pattern of intestinal permeability as peptides 12 and 12P
CCCCCCOC(=O)N=C(NCCC[C@@H]1NC(=O)[C@@H](Cc2ccccc2)N(C)C(=O)[C@H](C)N(C)C(=O)[C@H](C)NC(=O)[C@H](CC(=O)OC)NC(=O)CNC1=O)NC(=O)OCCCCCC [Peptide 30P, c(*fR(Hoc)2GD(OMe)A*A)] | same pattern of intestinal permeability as peptides 12 and 12P
C[C@@H]1NC(=O)[C@H](C)NC(=O)[C@@H](C)N(C)C(=O)[C@H](C)NC(=O)[C@H](C)N(C)C(=O)[C@H](C)NC1=O [Peptide 1] | extremely high Caco-2 permeability
CCCCCCOC(=O)N=C(NCCC[C@H]1NC(=O)[C@H](C)N(C)C(=O)[C@H](C)N(C)C(=O)[C@H](C)NC(=O)[C@H](CC(=O)OC)NC(=O)CNC1=O)NC(=O)OCCCCCC [Peptide 23P, c(r(Hoc)2GD(OMe)A*A*A)] (cyclo(A[NMeA][NMeA][X1]GD(OMe))) | same pattern of intestinal permeability as peptides 12 and 12P
C[C@@H]1NC(=O)[C@H](C)NC(=O)[C@@H](C)NC(=O)[C@H](C)N(C)C(=O)[C@H](C)N(C)C(=O)[C@H](C)NC1=O [Peptide 4] | extremely high Caco-2 permeability
C[C@@H]1NC(=O)[C@H](C)N(C)C(=O)[C@H](C)NC(=O)[C@H](C)N(C)C(=O)[C@H](C)NC(=O)[C@@H](C)NC1=O [Peptide 3] | extremely high Caco-2 permeability
C[C@@H]1NC(=O)[C@H](C)NC(=O)[C@@H](C)N(C)C(=O)[C@H](C)N(C)C(=O)[C@H](C)NC(=O)[C@H](C)NC1=O [Peptide 2] | extremely high Caco-2 permeability
